The values that follow come from publication PMC5996148.

“And” between values parts separate entries of the source, which are not always exact repeats. Identical values can stand only once. Some of the results follow. For some assays here: The exact form of the protein is not confirmed.

Test systems include ALOX15B (human); ALOX5 (human); ALS2 (human); AMBP (human); AMDHD1 (human); AMELX (human); ANKHD1 (human); ANKRD17 (human); ANKRD45 (human); ANKRD50 (human); ANPEP (human); ANXA6 (human); ANXA7 (human); ANXA9 (human); APBA2BP (human); APIP (human); APITD1 (human); APOA1 (human); APOA2 (human).
Holding throughout (test): protein microarray (ProtoArray v5.0), streptavidin-Alexa Fluor 647
Holding throughout (settings): 3'-biotin; 20 mM Tris (pH 7.5), 5 mM MgCl2, 100 mM KCl, 0.1% Tween-20, A/T-rich and random oligonucleotide blockers; temperature not stated; high values mean tight binding

The next experiment concerns the target T1, APBB1IP (UniProt Q7Z5R6).
T1 sequence: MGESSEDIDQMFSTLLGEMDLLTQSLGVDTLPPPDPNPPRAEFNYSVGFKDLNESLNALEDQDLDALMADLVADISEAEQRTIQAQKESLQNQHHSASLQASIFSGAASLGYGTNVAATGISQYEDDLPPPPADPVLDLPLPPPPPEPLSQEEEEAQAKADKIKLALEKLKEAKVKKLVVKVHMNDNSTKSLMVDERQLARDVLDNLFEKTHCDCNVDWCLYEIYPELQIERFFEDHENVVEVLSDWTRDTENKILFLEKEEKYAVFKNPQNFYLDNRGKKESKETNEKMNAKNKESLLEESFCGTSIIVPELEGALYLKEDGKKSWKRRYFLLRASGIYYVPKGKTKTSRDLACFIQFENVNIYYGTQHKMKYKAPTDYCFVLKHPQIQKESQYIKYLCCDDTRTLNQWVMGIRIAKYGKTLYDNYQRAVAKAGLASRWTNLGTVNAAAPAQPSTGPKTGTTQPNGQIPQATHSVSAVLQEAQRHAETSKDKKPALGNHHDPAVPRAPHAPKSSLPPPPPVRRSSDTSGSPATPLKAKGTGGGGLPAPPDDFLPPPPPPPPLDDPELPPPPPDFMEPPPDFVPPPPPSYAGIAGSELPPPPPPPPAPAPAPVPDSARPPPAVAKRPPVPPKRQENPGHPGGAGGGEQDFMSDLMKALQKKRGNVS

On to “GGGGACAGGGGTATGGGGAGGGG [G4-3 biotinylated (CtG)]”, for which the binding signal was -0.337 z-score in the experiment on ALOX15B (human); -0.326 z-score in the experiment with ALOX5 (human); -0.309 z-score in the experiment on ALS2 (human); -0.313 z-score in the experiment on AMBP (human); -0.308 z-score in the experiment on AMDHD1 (human); -0.333 z-score with AMELX (human). Also, the binding signal in the experiment with ANKHD1 (human) is -0.331 z-score and -0.328 z-score; in the experiment with ANKRD17 (human) it was -0.333 z-score; with ANKRD45 (human), -0.338 z-score; in the experiment on ANKRD50 (human), -0.336 z-score; in the experiment with ANPEP (human), -0.319 z-score; in the experiment with ANXA6 (human), -0.308 z-score. For the same sequence, the binding signal in the experiment on ANXA7 (human) is -0.309 z-score; with ANXA9 (human) it was -0.339 z-score; in the experiment on APBA2BP (human), -0.331 z-score; in the experiment with APBB1IP, -0.328 z-score; in the experiment on APIP (human) it was -0.331 z-score and -0.313 z-score; in the experiment with APITD1 (human), -0.325 z-score. Further, the binding signal in the experiment on APOA1 (human) is -0.342 z-score; in the experiment with APOA2 (human) it was -0.341 z-score.
